Laboratory results: PubChem BioAssay AID1259308 (NCATS, 2017)

Purpose: 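Genes whose loss raises luciferase production in HEK293 cells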 (primary screen)
Cells: human HEK293 embryonic kidney cells stably expressing firefly luciferase (HEK-CMV-Luc2-Hygro)
Reagents: single siRNA against human genes, 0.8 pmol siRNA per well
Time to read-out: 72 h
Measurement: 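Luciferase light (ONE-Glo) measured on one replicate plate set and viability (CellTiter-Glo) on the other, scaled to a negative control siRNA, with robust z-scores and luciferase per cell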
Scale: total luciferase, z-score and total luciferase, % of control: higher = more reporter protein produced; luciferase per cell, z-score: higher = more reporter output per viable cell; viable cells, % of control: higher = more viable cells
Rule for the call: 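Active when the median/MAD z-score for overall luciferase is greater than 3; a gene was taken forward for validation with new siRNAs if at least two of its three siRNAs passed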
Calls: active = raised luciferase; inactive = no rise
The whole screen tested about 59,000 reagents; below is a part drawn at random. In the full data, about 1,510 (2.6%) got an active call. 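Calls use total luciferase alone and ignore viability, so some active siRNAs may act by altering cell number.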 Reagent sequences are not shown.

Target gene	PubChem SID	total luciferase, z-score	total luciferase, % of control	luciferase per cell, z-score	viable cells, % of control	call
FBXO11	SID160750199	-0.563	70.7	-1.14	107	inactive
FBXO11	SID160750200	-0.219	77.5	-1.01	113	inactive
FBXO11	SID160750201	0.784	97.5	0.474	96.1	inactive
TMEM79	SID160735086	0.864	99.1	0.568	95.3	inactive
TMEM79	SID160752050	0.447	90.8	-0.294	110	inactive
TMEM79	SID160752051	-1.11	59.8	-0.725	80.9	inactive
WASHC2A	SID160733622	0.392	89.7	-0.0105	100	inactive
WASHC2A	SID160744249	-0.539	71.2	0.163	76.2	inactive
WASHC2A	SID160744250	0.422	90.3	0.0771	98.8	inactive
SPAG9	SID160721326	-0.866	64.7	-1.32	102	inactive
SPAG9	SID160721327	0.683	95.5	-0.0872	109	inactive
SPAG9	SID160721328	-1.34	55.3	-0.354	67.9	inactive
POGLUT1	SID160745440	-0.311	75.7	-0.581	98.6	inactive
POGLUT1	SID160745441	-0.181	78.3	-0.979	113	inactive
POGLUT1	SID160745443	-0.894	64.1	-0.877	90.2	inactive
DYRK1B	SID160721600	-0.471	72.5	0.0377	80.2	inactive
DYRK1B	SID160721602	0.923	100	0.659	94.2	inactive
DYRK1B	SID160721603	-0.0302	81.3	-0.265	97.4	inactive

As entered above:
Entry for POGLUT1 [SID160745443] under “luciferase per cell, z-score”: -0.877
Entry of POGLUT1 [SID160745441] in “luciferase per cell, z-score”: -0.979
SPAG9 [SID160721327], total luciferase, % of control → 95.5

More records follow.
Target gene	PubChem SID	total luciferase, z-score	total luciferase, % of control	luciferase per cell, z-score	viable cells, % of control	call
MGAT4A	SID160730501	-0.36	74.7	-0.0676	85	inactive
MGAT4A	SID160730511	-0.55	70.9	-0.908	101	inactive
MGAT4A	SID160730521	1.13	104	1.52	78.3	inactive
KCTD6	SID160760893	1.02	102	1.37	79.6	inactive
KCTD6	SID160760894	1.86	119	1.79	82.9	inactive
KCTD6	SID160760895	-0.81	65.8	-0.407	81.8	inactive
DUSP11	SID160720056	0.638	94.6	0.105	103	inactive
DUSP11	SID160720057	0.371	89.3	-0.315	108	inactive
DUSP11	SID160720058	-0.195	78	-0.732	106	inactive
MACF1	SID160736397	0.74	96.6	0.555	93.3	inactive
MACF1	SID160736398	0.635	94.5	0.105	103	inactive
MACF1	SID160736399	1.75	117	1.38	90.5	inactive
MACF1	SID160768840	0.319	88.2	0.153	94.7	inactive
MACF1	SID160768841	2.98	141	4.01	54.9	inactive
MACF1	SID160768842	-0.00219	81.8	0.279	85	inactive
BSX	SID160766464	1.12	104	1.81	72.3	inactive
BSX	SID160766465	-0.23	77.3	0.572	74.3	inactive
BSX	SID160766466	3.35	149	3.92	59.1	active
BMAL2	SID160745343	-0.185	78.2	-0.424	97.7	inactive
BMAL2	SID160745344	-0.681	68.3	-0.259	81.8	inactive
BMAL2	SID160745345	-0.701	68	-0.731	92	inactive
